Literature values as cited in patent US8815801B2, “Controlled release composition and method of producing the same” (Takeda Pharmaceutical Company Limited, priority 2001, dated 2014).
Some of these results come from one statement about several compounds together.

Conditions: literature value (Chemical Handbook, Basic II, 1969, for 3-hydroxy-2-naphthoic acid)

Compound: O=C(O)c1ccc(O)cc1 [p-hydroxybenzoic acid]
- pKa: ≥ 4

Compound: O=C(O)c1cccc(O)c1 [m-hydroxybenzoic acid]
- pKa: ≥ 4
